# Earlier results in patent US12048727B2, “Synergistic formulation against acne and a process for the preparation thereof” (COUNCIL OF SCIENTIFIC & INDUSTRIAL RESEARCH, priority 2019, dated 2024).
# At least one compound was matched to its structure with a doubt left.
# Tested on: P. acnes strains
# Conditions: Indian population
row,SMILES,resistance of antibiotics [%]
1,CCC[C@@H]1C[C@@H](C(=O)N[C@@H]([C@H]2O[C@H](SC)[C@H](O)[C@@H](O)[C@H]2O)[C@H](C)Cl)N(C)C1 [clindamycin],90.4
2,C[C@H]1c2cccc(O)c2C(=O)C2=C(O)[C@]3(O)C(=O)C(C(N)=O)=C(O)[C@@H](N(C)C)[C@@H]3[C@@H](O)[C@@H]21 [doxycycline],444.2
3,C[C@H]1COc2c(N3CCN(C)CC3)c(F)cc3c(=O)c(C(=O)O)cn1c23 [levofloxacin],9.6
4,CN(C)c1ccc(O)c2c1C[C@H]1C[C@H]3[C@H](N(C)C)C(O)=C(C(N)=O)C(=O)[C@@]3(O)C(O)=C1C2=O [minocycline],1.9
5,CN(C)[C@@H]1C(O)=C(C(N)=O)C(=O)[C@@]2(O)C(O)=C3C(=O)c4c(O)cccc4[C@@](C)(O)[C@H]3C[C@@H]12 [tetracycline],30.8
